Patent US20240350475A1, “TR[…] CARD[…] BY SARS-COV-2 SPIKE PROTEIN UNDER OBESITY” (priority 2023, published 2024)
“Also recorded” adds a separate entry of the source. At least one structure is not confirmed: it was looked up by name or label, or the drawing left a doubt.

Test system: HEK_Spike cells
Test: Palmitic acid (PA)-induced lipotoxicity assay in Spike cells, with or without inhibitors (PI/Hoechst cell viability)
Type: cell-based, Human
Settings: pre-incubated with 10 M Wortmannin 2 h, then 750 M PA 24 h, DMEM 5% FBS
Experimental: The HEK293, HEK_pcDNA, and HEK_Spike cells were cultured in a 96-well plate and reached to 80% confluence on the next day before treatment. The cells were kept in DMEM medium with 5% FBS during the entire treatment procedure. The cells were treated with PA (free BSA) in various concentrations from 250 to 1000 M for 24, 48, or 72 h.
For treatment control groups, the cells were treated by the same concentrations of BSA in parallel. For the inhibitory assay, the cells were pre-incubated by autophagic inhibitors (125 M trigonelline (TRG), or 10 M Wortmannin), or a ferropotosis inhibitor (ferrostatin, 2 M), or an […] (necrostatin-1, 10 M) in DMEM medium with 5% FBS for 2 h, followed by 750 M PA treatment for 24 h. The cells were then co-stained by Propidium Iodide (PI) and Hoechst 33342 NucBlue Live Cell Stain dye (ThermoFisher) to show the dead and live cells. The dyes were excited at 535 nm and 405 nm, respectively. TRG may be provided over a range of concentration such as 50 to 300 M, 60 to 290, 70 to 280, 80 to 270, 90 to 260, 100 to 250, 110 to 240, 120 to 230, 130 to 220, 140 to 210, 150 to 200, 160 to 190, 170 to 180, as well as sub ranges such as from 100M to 200 M, 125M to 175 M, etc., also include individual concentrations, such as 125M, 150 M, 175M, etc. […]

## COC[C@H]1OC(=O)c2coc3c2[C@@]1(C)C1=C(C3=O)[C@@H]2CCC(=O)[C@@]2(C)C[C@H]1OC(C)=O [Wortmannin]
  PA-induced Spike protein-exaggerated lipotoxicity (necrosis, cell viability): significantly mitigated; also recorded: can be suppressed
Listed as wortmannin
  PA-induced Spike protein-exaggerated lipotoxicity (necrosis, cell viability): potent inhibition
